63 compounds from PubChem BioAssay AID445 (National Center for Advancing Translational Sciences (NCATS), 2006) can be followed below.

This assay can be described thus: IkB Signaling. As to conditions: ABC-DLBCL IkBa-CBG/CBR dual luciferase ratio (green luciferase fused to IkBa over red control in OCI-Ly3 lymphoma cells), 4 h. In outline: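 In this assay, an IκBα–CBG68 fusion accumulates when IKK-driven degradation is blocked; native CBR normalizes for cell number. OCI-Ly3 cells were treated 4 h with compound and doxycycline, then green and red light read after Chroma-Glo addition.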
The mark [1] stands for this setting: measured here: control luc red channel unless noted.

The list shows a part of the results. Shown are side measurements of this screen, not its main read-out; they come without a call. The list favours compounds with an active or inconclusive main result. Words in brackets tell the shape of the fitted curve; partial curves, single points and poor fits give uncertain potencies.

The term AC50 denotes the midpoint of the concentration-response curve, whichever way the signal moves. In the case of `O=C(c1cc(-c2ccc(O)cc2)on1)N1CCN(c2ccccc2)CC1`, the AC50 under setting [1] is 6.31 µM [falling, partial curve]. In the case of `O=C(O)CCCSc1nc2ccccc2s1`, under setting [1], the concentration at half-maximal activity (AC50) was 2 µM [falling, partial curve]. On the same count and under the same terms, as for `CCCCOC(=O)c1ccc(NC(=O)c2cnc3ccc(C)cn3c2=O)cc1`, the figure is 39.8 µM [falling, single point]; as for `CCN(c1cccc(C)c1)c1ncnc2c1cnn2-c1cccc(Cl)c1`, 5.01 µM [falling, partial curve]; as for `Cc1nn(C(=O)c2ccc(Br)cc2)c(C)c1Sc1ccccc1`, 15.8 µM [falling, partial curve].

In the case of `COc1cc(OC)c(N(C)C(=O)c2sc3nc4n(c(=O)c3c2C)CCCC4)cc1Cl`, the AC50 under setting [1] is 10 µM [falling, partial curve].

As for `COc1ccccc1N1CCN(C(=O)COc2ccc(Cl)cc2Br)CC1`, under setting [1], the AC50 was 31.6 µM [falling, single point]. On the same count and under the same terms, the result for `O=C(COc1cccc2ccccc12)N1CCN(c2ccccc2)CC1` reads 20 µM [falling, partial curve].

`COc1cccc(CNC(=O)c2ccc(NC(=O)N3CC(C)Sc4ccccc43)cc2)c1` (centres undefined): under setting [1], the AC50 is 10 µM [falling, partial curve].

Take `Cc1ccccc1Nc1c(-c2ccncc2)nc2ccc(Cl)cn12`: the AC50 under setting [1] is 12.6 µM [falling, partial curve].

As to `CC(C)c1nnc(NC(=O)CC(=O)Nc2ccccc2C(=O)O)s1`, the AC50 under setting [1] is 5.01 µM [falling, partial curve].

As to `COc1cc(NC(=O)c2ccc(NC(=O)N3CCSc4ncccc43)cc2)cc(OC)c1`, the AC50 under setting [1] is 31.6 µM [falling, partial curve]. On the same count and under the same terms, the result for `CC(C)(C)OC(=O)N1CCC(c2c(C(=O)N3CCN(C(=O)c4ccco4)CC3)cnn2-c2ccccc2)CC1` reads 20 µM [falling, single point]; that for `Cc1ccc2nc(Cl)c3cc(C(=O)NC4CCCCCC4)sc3c2c1`, 25.1 µM [falling, partial curve, poor fit]; that for `Cc1cccc(NC(=O)Cc2csc(COc3cccc(C)c3)n2)c1`, 31.6 µM [falling, single point]. Still for that read-out and setting: the result for `Cc1cc(C)cc(NC(=O)CCc2c(C)nc3c4cccnc4nn3c2C)c1` reads 25.1 µM [falling, partial curve]; that for `CC1=C(C(=O)Nc2ccccc2)C(c2ccc(C)o2)n2c(s/c(=C\c3ccco3)c2=O)=N1` (centres undefined), 10 µM [falling, partial curve]; that for `FC(F)(F)c1cccc(Nc2ncnc3ccccc23)c1`, 39.8 µM [falling, single point]. Same read-out and setting: the result for `CCOc1ccc(S(=O)(=O)Nc2ccc(-c3ccc(OC)nn3)cc2)cc1` reads 3.98 µM [falling, partial curve]; that for `Cc1c2cnn(-c3ccccc3)c(=O)c2c(C)n1CC(=O)NCc1ccccc1`, 0.398 µM [rising, full curve]. With `Cc1ccc(Cl)cc1NS(=O)(=O)c1cc2c3c(c1)CC(=O)N3CCC2`, the AC50 under setting [1] is 5.01 µM [rising, partial curve].

Consider `CN(CC(=O)Nc1ccc(Cl)cc1)CC(=O)Nc1cc(Cl)ccc1C#N`, for which the AC50 under setting [1] is 39.8 µM [falling, partial curve]. Still for that read-out and setting: the result for `CCCNC(=O)N1CCN(S(=O)(=O)c2ccc3c(ccn3C)c2)CC1` reads 2.51 µM [falling, partial curve]; that for `Cc1ccc(CNC(=O)Cn2c(=O)n(-c3cccc(Cl)c3)c(=O)c3sc4ccccc4c32)cc1`, 3.98 µM [falling, partial curve]; that for `CCOc1ccc(-c2cc3nc(C4CCN(C(=O)OC(C)(C)C)CC4)c(C(=O)Nc4ccc(C)cc4C)cn3n2)cc1`, 25.1 µM [falling, single point].

Regarding `Cc1ccc2c(c1)-c1c(cnn1CC(=O)Nc1ccccc1C#N)CO2`, under setting [1], the AC50 was 12.6 µM [falling, single point].

`CC(=O)N1CCCc2cc(S(=O)(=O)N3CCCC(C(=O)N4CCN(c5cc(C)ccc5C)CC4)C3)ccc21` (centres undefined): the AC50 under setting [1] was 31.6 µM [falling, single point]. On the same count and under the same terms, the result for `Cc1ccc(C(=O)COC(=O)CCC(=O)Nc2ccc(Oc3cc(C)ccc3C(C)C)cc2)cc1` reads 39.8 µM [falling, single point]; that for `CCc1ccc(C2=NN(CCC(=O)NCCc3ccc(Cl)cc3)C(=O)CC2)cc1`, 31.6 µM [falling, single point]; that for `O=C(NCC(c1ccccc1)c1ccccc1)c1nn(-c2ccccc2F)nc1CO`, 1 µM [falling, full curve].

As to `Oc1c(CN2CCN(c3ccccn3)CC2)cc(Cl)c2cccnc12`, the AC50 by setting is: (measured here: IkB-luc green channel) 6.31 µM [rising, single point]; (measured here: control luc red channel) 3.16 µM [falling, full curve, poor fit].

Turning to `Cc1ccc(CCNC(=O)CCSCc2ccccc2Cl)cc1`, under setting [1], the AC50 is 31.6 µM [falling, single point]. On the same count and under the same terms, the result for `Oc1ccccc1OCc1nc2ccccc2s1` reads 7.94 µM [falling, full curve]. As to `CCOC(=O)Cn1nnnc1C(C(C)C)N(Cc1cc2c(C)cc(C)cc2[nH]c1=O)C1CCCC1` (centres undefined), under setting [1], the AC50 is 20 µM [falling, partial curve]. As to `Cc1cc(Br)ccc1NC(=O)C1CCN(S(=O)(=O)c2ccc(Br)s2)CC1`, the AC50 under setting [1] is 2.51 µM [falling, partial curve]. On the same count and under the same terms, as for `CCOC(=O)c1ccc(N2C(=O)c3n[nH]c(-c4cccs4)c3C2c2ccc(Cl)cc2Cl)cc1` (centres undefined), the figure is 20 µM [falling, partial curve]; as for `COc1ccc(NC(=O)c2c(C)oc3ccc(O)c(CN4CCN(Cc5ccccc5)CC4)c23)cc1`, 12.6 µM [falling, partial curve]; as for `Cc1ccc(NC(=O)CN2C(=O)C3(SCC(=O)N3c3ccc(F)c(F)c3)c3ccccc32)c(C)c1` (centres undefined), 20 µM [falling, single point]. Still for that read-out and setting: as for `CCOCCCNC(=O)C(c1ccc(Cl)cc1)N(Cc1cccs1)C(=O)c1ccc(NC(C)=O)cc1` (centres undefined), the figure is 10 µM [falling, partial curve]. On the same count and under the same terms, the result for `Cc1cc(=O)n(CCc2ccccc2)c(O)c1C#N` reads 15.8 µM [falling, partial curve].

For the compound `Cc1ccc(-n2c(SCC(=O)NCc3ccco3)nnc2-c2cccnc2)c(C)c1`, under setting [1], the half-maximal activity concentration (AC50) is 31.6 µM [falling, partial curve]. The same measure, in the same setting: the result for `CN(C)c1ccc(C(CNC(=O)c2c(F)cccc2Cl)N2CCOCC2)cc1` (centres undefined) reads 10 µM [falling, partial curve]. Same read-out and setting: as for `CC(C)(Oc1ccc(Cl)cc1)C(=O)Nc1nc2ccc(S(C)(=O)=O)cc2s1`, the figure is 31.6 µM [falling, single point]. On the same count and under the same terms, as for `COc1ccc(Cl)cc1NC(=O)NCC1CCN(Cc2ccccc2F)CC1`, the figure is 10 µM [falling, partial curve]; as for `COc1ccc(-n2c(=O)c3c4c(sc3n3c(SCCC(C)C)nnc23)COC(C(C)C)C4)cc1` (centres undefined), 12.6 µM [falling, partial curve]; as for `CN1C(=O)C2(SCC(=O)N2c2ccc(F)cc2)c2ccccc21` (centres undefined), 10 µM [falling, partial curve]. Take `COCCNC(=O)CSc1nc(-c2ccccc2C)nc2c1c(=O)n(C)c(=O)n2C`: the AC50 under setting [1] was 0.1 µM [falling, full curve, poor fit]. The same measure, in the same setting: the result for `NS(=O)(=O)c1ccc2nc(NC(=O)COc3ccccc3)sc2c1` reads 3.16 µM [rising, full curve]; that for `Cc1ccc(NC(=O)c2nc(S(C)(=O)=O)ncc2N(Cc2ccco2)Cc2ccco2)cc1C`, 7.94 µM [falling, partial curve]. Still for that read-out and setting: the result for `CCOc1ccc(Nc2c(S(=O)(=O)c3ccccc3)cnc3ccccc23)cc1` reads 15.8 µM [falling, partial curve]; that for `Cc1ccc(NC(=O)c2c(C)oc3ccc(O)c(CN4CCCCC4)c23)c(C)c1`, 7.94 µM [falling, partial curve]; that for `Cc1ccc(-c2nnc(Nc3ccc(S(N)(=O)=O)cc3)c3ccccc23)cc1S(=O)(=O)N1CCCCC1`, 15.8 µM [falling, partial curve]. The same measure, in the same setting: the result for `O=C(Nc1ccc(F)cc1F)c1cc(-c2ccco2)on1` reads 5.01 µM [falling, full curve]; that for `Cc1ccc(C)c(Cn2c(=O)cc(C)c3c(C)nn(C)c32)c1`, 25.1 µM [falling, partial curve]. For the compound `CCn1c(C)c(C)c2cc(C(=O)NCc3cccc(C)c3)ccc21`, the AC50 under setting [1] was 25.1 µM [falling, single point].

For the compound `O=C(c1ccccc1)N(Cc1ccco1)Cc1cccs1`, the AC50 under setting [1] was 31.6 µM [falling, single point].

Regarding `COc1ccc(NC(=O)/C=C\C(=O)N(c2ccc(C(C)C)cc2)C(C(=O)NCc2ccco2)c2ccc(F)cc2)cc1` (centres undefined), the half-maximal activity concentration (AC50) under setting [1] was 31.6 µM [falling, partial curve]. Still for that read-out and setting: the result for `COc1ccc(OCC(=O)N2CCN(C(=O)c3cccc(OC)c3)CC2)cc1` reads 39.8 µM [falling, single point]; that for `COc1ccccc1NC(=O)c1sc2nc(C)c(C(=O)Nc3ccc(C)cc3C)c(-c3ccc(C)o3)c2c1N`, 3.98 µM [falling, partial curve]; that for `Cc1ccc(-n2ncc3c(N4CCN(C)CC4)ncnc32)cc1C`, 20 µM [falling, single point]. Same read-out and setting: as for `O=C(C1CCN(S(=O)(=O)c2cccc3cccnc23)CC1)N1CCN(c2ccc(Cl)cc2)CC1`, the figure is 12.6 µM [falling, partial curve]. Same read-out and setting: the result for `Cc1cccc(N2CCN(c3nc4ccc(C)cc4n4cnnc34)CC2C)c1` (centres undefined) reads 39.8 µM [falling, single point]; that for `O=C(NC1CCCCC1)N1CCc2ccccc21`, 12.6 µM [falling, partial curve].
